# Test results as given in article PMC6337163, “Identification of Fatty Acid Desaturase 6 in Golden Pompano Trachinotus Ovatus (Linnaeus 1758) and Its Regulation by the PPARαb Transcription Factor” (International Journal of Molecular Sciences, 2018).
# The exact form of at least one protein or probe is not confirmed. Where cells or extracts were used, other partners may take part. Negatives hold for the conditions tested. Where a protein sequence is shown, tags need not be part of it.
# Target: T1, PPARαb (ToPPARαb) (Trachinotus ovatus) (UniProt A0A3G2KY74)
# T1 sequence (looked up, limits assumed): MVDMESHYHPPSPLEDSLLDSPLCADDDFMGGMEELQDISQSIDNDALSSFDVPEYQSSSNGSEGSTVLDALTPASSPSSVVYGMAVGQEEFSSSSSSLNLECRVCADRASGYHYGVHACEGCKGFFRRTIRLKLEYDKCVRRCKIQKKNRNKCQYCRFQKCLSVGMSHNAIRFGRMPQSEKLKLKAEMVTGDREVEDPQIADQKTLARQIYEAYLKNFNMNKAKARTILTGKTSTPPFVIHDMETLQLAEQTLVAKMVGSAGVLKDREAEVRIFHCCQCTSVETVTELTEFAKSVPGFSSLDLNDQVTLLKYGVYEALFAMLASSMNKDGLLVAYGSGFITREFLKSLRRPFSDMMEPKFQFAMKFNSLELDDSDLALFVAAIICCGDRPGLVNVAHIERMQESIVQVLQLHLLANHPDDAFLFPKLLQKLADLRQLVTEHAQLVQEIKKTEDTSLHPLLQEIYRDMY
# Test: EMSA
# Conditions: EMSA/Gel-Shift Kit (Beyotime) buffer, 25 °C, nondenaturing 4% PAGE, salt and pH not stated, protein in a lysate after overexpression, protein details: Flag (pcDNA3.1-Flag), label: biotin
Sequence,binding result (blocked by 100x unlabeled WT probe),binding result
ATGCTAACTTTGACCTGTGGACTGTGC (double strand) [Fads6-WT (M2 site)],binds,–
ACCTGGGTCAACTGGCTGAACACGTAG (double strand) [Fads6-MT (mutated M2)],–,no binding
